# This continues a long series; more values of the same kind are listed elsewhere.
# Test system: KBM7 WT cells (global proteome)
# Test: Quantitative expression proteomics (TMT isobaric tagging), drug vs DMSO
# Format: cell-based, human
# Excerpt: The mechanism by which the assayed molecules re-program a functional CRL4B complex based on the data shown could be that drug binding to CUL4B recruits a neo-substrate directly to the cullin backbone. Alternatively, drug binding could stabilize CUL4B function to boost time intervals where a functionally competent CUL4B complexes can be formed. Here, the word “functional” implies that the CUL4B backbone of this complex needs to be neddylated, and a CUL4B associated E2 ubiquitin-conjugating enzyme (UBE2G1) needs to be bound. FIG. 9 outlines one possible mechanism. Both predicted mechanisms of action would result in a functionally altered CRL4B complex, and thus an altered stability of drug-induced (neo-) substrates. In order to identify target proteins with a decreased abundance or, in other words, target proteins that become degraded by CRL4B after drug treatment, global proteome composition was measured using quantitative expression proteomics (TMT-labeling). In brief, KBM7 cells were drug treated for 12 hours, lysed, and subjected to isobaric tagging. Ensuing proteomics analysis quantified a total of 7,903 proteins at a minimum spectral count of 2. […] Data on essentiality are taken from Hart et al., G3, August 2017 (PMID: 28655737).
# 50×10^6 KBM7^WT cells per condition were collected, washed four times with ice-cold PBS, the supernatant aspirated and pellets snap-frozen in liquid N2. Each washed cell pellet was lysed separately in 40 μL of freshly prepared lysis buffer as previously described (see Mayor-Ruiz et al., Mol Cell 2019)
# Offline Fractionation via RP-HPLC at high pH and 2D-RP/RP Liquid Chromatography Mass Spectrometry were performed as previously described (see Mayor-Ruiz et al., Mol Cell 2019).
# Acquired raw data files were processed using the Proteome Discoverer 2.2.0 platform, utilizing the Sequest HT database search engine and Percolator validation software node (V3.04) to remove false positives with a false discovery rate (FDR) of 1% on peptide and protein level under strict conditions. Searches were performed with full tryptic digestion against the human SwissProt database v2017.06 with up to two allowed miscleavage sites. Oxidation (+15.9949 Da) of methionine was set as variable modification, whilst carbamidomethylation (+57.0214 Da) of cysteine residues and TMT 6-plex labelling of peptide N-termini and lysine residues were set as fixed modifications. Data was searched with mass tolerances of ±10 ppm and ±0.02 Da on the precursor and fragment ions, respectively. Results were filtered to include peptide spectrum matches (PSMs) with Sequest HT cross-correlation factor (Xcorr) scores of […] and high peptide confidence assigned by Percolator. MS^2 signal-to-noise values (S/N) values of TMT reporter ions were used to estimate peptide/protein abundance changes. PSMs with precursor isolation interference values of ≥ 50% and average TMT-reporter ion S/N≤10 were excluded from quantitation. Only unique peptides were used for TMT quantitation as well as for TOP3 label-free quantitation. Isotopic impurity correction and TMT channel-normalization based on total peptide amount were applied. For statistical analysis and p-value calculation, the integrated ANOVA hypothesis test was used. TMT ratios with p-values below 0.01 were considered as significant. Only proteins with >1 peptide detected and >1 unique peptide detected were considered for further analysis. For the calling of destabilized proteins, a log 2 fold change threshold (drug/DMSO) of −0.3 was applied.
# Comparison of overall proteome-wide changes in KBM7 cells treated with IC020772.1 (2.5 μM), IC021313.2 (7 μM) or T6938051 (3.5 μM) for 5 h and 12h, using quantitative proteomics based on isobaric tagging.
# The protein names in Table 4, Table 5 and Table 6 refer to the protein names as provided by HUGO Gene Nomenclature Committee (HGNC) database. […]
smiles,measurement,setting,value
O=C(CSc1nnc2c(n1)[nH]c1ccccc12)Nc1ccc(Cl)cn1 [IC020772.1],log2FC (IC020772.1/DMSO),FAM173B (Q6P4H8-1),−0.4364
same,log2FC (IC020772.1/DMSO),FAM193B (Q96PV7-1),−0.3383
same,log2FC (IC020772.1/DMSO),FBN2 (P35556-1),−0.3437
same,log2FC (IC020772.1/DMSO),FBXO11 (Q86XK2-5),−0.484
same,log2FC (IC020772.1/DMSO),FBXO28 (Q9NVF7-1),−0.662
same,log2FC (IC020772.1/DMSO),FBXO38 (Q6PU6-1),−0.8135
same,log2FC (IC020772.1/DMSO),FEM1A (Q9BSK4),−1.155
same,log2FC (IC020772.1/DMSO),FOPNL (Q96NB1-1),−0.3401
same,log2FC (IC020772.1/DMSO),FSTL1 (Q12841-1),−0.873
same,log2FC (IC020772.1/DMSO),FZD6 (O60353-1),−0.48
same,log2FC (IC020772.1/DMSO),GALNT6 (Q8NCL4),−0.3659
same,log2FC (IC020772.1/DMSO),GBGT1 (Q8N5D6-1),−0.8314
same,log2FC (IC020772.1/DMSO),GCNT1 (Q02742),−0.4422
same,log2FC (IC020772.1/DMSO),GEN1 (Q17RS7),−0.4403
same,log2FC (IC020772.1/DMSO),GFRA1 (P56159-1),−0.3364
same,log2FC (IC020772.1/DMSO),GGNBP2 (Q9H3C7-1),−0.8783
same,log2FC (IC020772.1/DMSO),GINM1 (Q9NU53),−0.4501
same,log2FC (IC020772.1/DMSO),GINS4 (Q9BRT9-1),−0.3752
same,log2FC (IC020772.1/DMSO),GLIPR1 (P48060-1),−0.4112
same,log2FC (IC020772.1/DMSO),GLRX2 (Q9NS18-2),−0.662
same,log2FC (IC020772.1/DMSO),GNL3L (Q9NVN8),−0.3959
same,log2FC (IC020772.1/DMSO),GOLPH3L (Q9H4A5-1),−0.3419
same,log2FC (IC020772.1/DMSO),GPBPILl (Q9HC44),−0.6597
same,log2FC (IC020772.1/DMSO),GPKOW (Q92917),−0.3437
same,log2FC (IC020772.1/DMSO),GPSM2 (P81274),−0.8059
same,log2FC (IC020772.1/DMSO),GSKIP (Q9P0R6),−0.3733
same,log2FC (IC020772.1/DMSO),GTPBP10 (A4D1E9-1),−0.48
same,log2FC (IC020772.1/DMSO),HAUS7 (Q99871-2),−0.4521
same,log2FC (IC020772.1/DMSO),HCLS1 (P14317-1),−0.3201
same,log2FC (IC020772.1/DMSO),HECTD4 (Q9Y4D8-5),−0.3733
same,log2FC (IC020772.1/DMSO),HELLS (Q9NRZ9-1),−0.4093
same,log2FC (IC020772.1/DMSO),HERPUD1 (Q15011-1),−0.8546
same,log2FC (IC020772.1/DMSO),HIF1AN (Q9NWT6),−0.4422
same,log2FC (IC020772.1/DMSO),HIKESHI (Q53FT3),−0.3383
same,log2FC (IC020772.1/DMSO),HMMR (O75330-3),−0.9518
same,log2FC (IC020772.1/DMSO),HS6ST1 (O60243-1),−0.484
same,log2FC (IC020772.1/DMSO),ICE1 (Q9Y2F5),−0.3383
same,log2FC (IC020772.1/DMSO),IFRD2 (Q12894-2),−0.3346
same,log2FC (IC020772.1/DMSO),IRF2 (P14316-1),−0.484
same,log2FC (IC020772.1/DMSO),IRF7 (Q92985-4),−0.3383
same,log2FC (IC020772.1/DMSO),ITGA4 (P13612-1),−0.4364
same,log2FC (IC020772.1/DMSO),IVNS1ABP (Q9Y6Y0),−0.662
same,log2FC (IC020772.1/DMSO),JADE1 (Q6IE81-1),−0.9324
same,log2FC (IC020772.1/DMSO),JMJD4 (Q9H9V9-1),−0.3346
same,log2FC (IC020772.1/DMSO),JPH1 (Q9HDC5),−0.4501
same,log2FC (IC020772.1/DMSO),JUND (P17535),−0.3659
same,log2FC (IC020772.1/DMSO),KAT14 (Q9H8E8-1),−0.3696
same,log2FC (IC020772.1/DMSO),KAZN (Q674X7-1),−0.3437
same,log2FC (IC020772.1/DMSO),KCNQ5 (Q9NR82-6),−0.4461
same,log2FC (IC020772.1/DMSO),KCT2 (Q8NC54),−0.811
same,log2FC (IC020772.1/DMSO),KCTD3 (Q9Y597-1),−0.4759
same,log2FC (IC020772.1/DMSO),KCTD5 (Q9NXV2),−0.8288
same,log2FC (IC020772.1/DMSO),KCTD20 (Q7Z5Y7-1),−0.48
same,log2FC (IC020772.1/DMSO),KDM4A (O75164-1),−0.4501
same,log2FC (IC020772.1/DMSO),KIAA0754 (O94854-1),−0.7084
same,log2FC (IC020772.1/DMSO),KIAA1143 (Q96AT1),−0.4501
same,log2FC (IC020772.1/DMSO),KIAA1524 (Q8TCG1-1),−0.4442
same,log2FC (IC020772.1/DMSO),KIF18B (Q86Y91-2),−0.4035
same,log2FC (IC020772.1/DMSO),KLHDC2 (Q9Y2U9-1),−0.8546
same,log2FC (IC020772.1/DMSO),KLHL26 (Q53HC5),−0.3364
same,log2FC (IC020772.1/DMSO),KNSTRN (Q9Y448-1),−1.184
same,log2FC (IC020772.1/DMSO),LRIF1 (Q5T3J3-1),−0.3959
same,log2FC (IC020772.1/DMSO),LRR1 (Q96L50-1),−0.6758
same,log2FC (IC020772.1/DMSO),LSM1 (O15116),−0.4461
same,log2FC (IC020772.1/DMSO),LTV1 (Q96GA3),−0.6689
same,log2FC (IC020772.1/DMSO),MAX (P61244-1),−0.3733
same,log2FC (IC020772.1/DMSO),MBP (P02686-1),−0.9241
same,log2FC (IC020772.1/DMSO),MED30 (Q96HR3-1),−0.3771
same,log2FC (IC020772.1/DMSO),MEF2C (Q06413-1),−0.3978
same,log2FC (IC020772.1/DMSO),METTL2B (Q6P1Q9-1),−0.3752
same,log2FC (IC020772.1/DMSO),METTL6 (Q8TCB7-1),−0.3959
same,log2FC (IC020772.1/DMSO),MGAT5 (Q09328),−0.3752
same,log2FC (IC020772.1/DMSO),MIER3 (Q7Z3K6-2),−0.4016
same,log2FC (IC020772.1/DMSO),MLC1 (Q15049-1),−0.811
same,log2FC (IC020772.1/DMSO),MPP5 (Q8N3R9-1),−0.3752
same,log2FC (IC020772.1/DMSO),MTERF1 (Q99551),−0.3437
same,log2FC (IC020772.1/DMSO),MTG1 (Q9BT17-1),−0.3696
same,log2FC (IC020772.1/DMSO),MTIM (Q8N339),−0.3789
same,log2FC (IC020772.1/DMSO),MTO1 (Q9Y2Z2-6),−0.3771
same,log2FC (IC020772.1/DMSO),MYB (P10242-4),−0.4112
same,log2FC (IC020772.1/DMSO),MZT1 (Q08AG7),−0.4035
same,log2FC (IC020772.1/DMSO),NABP1 (Q96AH0-1),−0.6967
same,log2FC (IC020772.1/DMSO),NDE1 (Q9NXR1-1),−0.364
same,log2FC (IC020772.1/DMSO),NOL7 (Q9UMY1-1),−0.3364
same,log2FC (IC020772.1/DMSO),NOP10 (Q9NPE3),−0.3959
same,log2FC (IC020772.1/DMSO),NOP53 (Q9NZM5),−0.7084
same,log2FC (IC020772.1/DMSO),NRP1 (O14786-1),−0.4074
same,log2FC (IC020772.1/DMSO),NRROS (Q86YC3),−0.8443
same,log2FC (IC020772.1/DMSO),NSA2 (O95478),−0.6689
same,log2FC (IC020772.1/DMSO),NUMA1 (Q14980-2),−0.3715
same,log2FC (IC020772.1/DMSO),NUPL2 (O15504-1),−0.3752
same,log2FC (IC020772.1/DMSO),OAS1 (P00973-3),−0.881

# Reference: patent US12410152B2, “Oxazole and thioazole-type cullin ring ubiquitin ligase compounds and uses thereof” (Proxygen GmbH, priority 2019, dated 2025)
